These are yes or no findings as the source states them, for the method shown. Some entries that bind do so weakly or less than the wild type. Values belong to the molecule of their own block, whether it stands above or below them.
How the values were obtained:
Activin B = molecular target: T1, Activin B (UniProt P09529); test: ELISA, Activin B coated on the plate, CR-Fc detected with anti-Fc-alkaline phosphatase
T1 sequence (looked up): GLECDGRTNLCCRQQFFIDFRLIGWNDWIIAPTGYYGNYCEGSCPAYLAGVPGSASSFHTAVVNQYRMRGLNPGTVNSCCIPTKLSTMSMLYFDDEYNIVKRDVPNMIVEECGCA

CR-Fc [1] = molecular target: T2, CR-Fc (UniProt P13385 31-169); test: competition ELISA: CR-Fc pre-incubated with Activin B in solution, then added to an Activin B coated plate
T2 construct: not shown: Fc part; not described
T2 sequence (looked up): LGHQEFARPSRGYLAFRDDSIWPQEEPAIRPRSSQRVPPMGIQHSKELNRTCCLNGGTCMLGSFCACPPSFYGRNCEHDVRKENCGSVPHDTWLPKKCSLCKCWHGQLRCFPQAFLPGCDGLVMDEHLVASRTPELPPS

CR-Fc [2] = molecular target: T2, CR-Fc; test: Biacore, CR-Fc immobilized on the chip

binding (Activin B): binds
Molecule: CR-Fc (from UniProt P13385 31-169) (Fc fusion)

binding (CR-Fc [1]): binds
binding (CR-Fc [2]): binds
B1: Activin B (ligand, UniProt P09529 293-407, looked up)
chain: T1 sequence (looked up)

— patent US20050255117A1 (Biogen, published 2005)
